PubChem BioAssay AID504791, Drosophila RNAi Screening Center – 2011

Screen: 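Genes of the fly required for silencing by miRNA, siRNA or endo-siRNA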 (primary screen)
Cells: Drosophila S2-derived reporter cells
Reagents: long dsRNA against Drosophila genes, about 150-250 ng dsRNA per well (siRNA assay); about 80-120 ng (miRNA assay)
Duration: about 5 days (siRNA assay); about 4 days (miRNA assay)
Challenge: copper sulfate induction of reporters: 25 µM (siRNA assay); 200 mM stated (miRNA assay), 1-2 days before reading
Detection: 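Per-well ratio of Renilla over firefly light, expressed relative to that plate's average ratio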
Active means: 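First-pass picks had plate-scaled ratios over 1.5 for the siRNA assay, over 1.6 for the miRNA assay, or under 0.6; two distinct dsRNAs had to score alike on retest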
The deposit covers about 23,000 reagents; below is a random part of those that have a named target and a result. In the full data, 199 (0.86%) are marked active. 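Plate-scaled ratios behind the calls are not deposited; printed light signals are raw; many rows marked increased or decreased are still called inactive.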 Names joined by + are all predicted targets of the reagent. Reagent sequences are not shown. The record does not give: the direction of the score.

The first 4 records, ahead of the listing:
| gene | dsRNA | stable siRNA reporter change | miRNA reporter change | stable assay Renilla, run 1 (luminescence) | stable assay firefly, run 1 (luminescence) | call |
| --- | --- | --- | --- | --- | --- | --- |
| RalGPS (GeneID 36881) | DRSC06941 | – | – | 9984 | 3.42e5 | inactive |
| mtg (GeneID 40970) | DRSC16256 | – | – | 7348 | 4.92e5 | inactive |
| CG9518 (GeneID 32416) | DRSC20194 | reporter ratio raised past the hit cutoff | – | 5366 | 2.69e5 | inactive |
| His4r (GeneID 41773) | DRSC16703 | reporter ratio lowered past the hit cutoff | – | 7586 | 7.13e5 | active |

The listing, from the first entry:
| gene | dsRNA | stable siRNA reporter change | miRNA reporter change | stable assay Renilla, run 1 (luminescence) | stable assay firefly, run 1 (luminescence) | call |
| --- | --- | --- | --- | --- | --- | --- |
| RalGPS (GeneID 36881) | DRSC06941 | – | – | 9984 | 3.42e5 | inactive |
| mtg (GeneID 40970) | DRSC16256 | – | – | 7348 | 4.92e5 | inactive |
| CG9518 (GeneID 32416) | DRSC20194 | reporter ratio raised past the hit cutoff | – | 5366 | 2.69e5 | inactive |
| His4r (GeneID 41773) | DRSC16703 | reporter ratio lowered past the hit cutoff | – | 7586 | 7.13e5 | active |
| Hasp (GeneID 35238) | DRSC02022 | – | – | 18566 | 1.34e6 | inactive |
| CG4575 (retired record) (GeneID 31637) | DRSC18372 | – | – | 5059 | 3.83e5 | inactive |
| CG7945 (GeneID 39679) | DRSC10934 | – | – | 7279 | 2.65e5 | inactive |
| Sgp (GeneID 34188) | DRSC02195 | – | – | 8511 | 5.81e5 | inactive |
| CG42362 + CG42363 | DRSC04265 | – | – | 9348 | 3.43e5 | inactive |
| Alg1 (GeneID 42146) | DRSC15297 | – | – | 8263 | 3.42e5 | inactive |
| ntc (GeneID 38443) | DRSC08166 | – | – | 8302 | 4.53e5 | inactive |
| UbcE2M (GeneID 38916) | DRSC10828 | – | – | 8889 | 5.98e5 | inactive |
| Hk (GeneID 31955) | DRSC17638 | – | reporter ratio raised past the hit cutoff | 4760 | 4.54e5 | inactive |
| Hk (GeneID 31955) | DRSC18138 | – | – | 5416 | 2.11e5 | inactive |
| Hk (GeneID 31955) | DRSC18674 | – | – | 4080 | 3.38e5 | inactive |
| fzr2 (GeneID 37808) | DRSC04280 | – | – | 10377 | 1.87e6 | inactive |
| CycG (GeneID 43724) | DRSC14324 | – | – | 7244 | 4.10e5 | inactive |
| CycG (GeneID 43724) | DRSC23345 | – | – | 4679 | 3.71e5 | inactive |
| CG13077 (GeneID 35252) | DRSC02181 | – | – | 6566 | 3.88e5 | inactive |
| hpRNA:CR32207 (GeneID 10178801) | DRSC09616 | – | – | 6130 | 4.20e5 | inactive |
| Rad60 (GeneID 42748) | DRSC15580 | – | – | 6327 | 3.77e5 | inactive |
| Tpc2 (GeneID 37983) | DRSC04322 | – | – | 6760 | 4.43e5 | inactive |
| xmas (GeneID 44271) | DRSC21306 | – | – | 5943 | 4.65e5 | inactive |
| xmas (GeneID 44271) | DRSC22178 | – | – | 10417 | 5.77e5 | inactive |
| CG6928 (GeneID 39367) | DRSC10749 | – | – | 6899 | 3.35e5 | inactive |
| Nedd8 (GeneID 35151) | DRSC02092 | – | – | 7275 | 5.16e5 | inactive |
| Clbn (GeneID 43018) | DRSC14404 | – | – | 8423 | 4.60e5 | inactive |
| CG2685 (GeneID 31259) | DRSC18463 | reporter ratio raised past the hit cutoff | – | 9135 | 3.30e5 | inactive |
| Tif-IA (GeneID 35454) | DRSC03717 | – | – | 84026 | 3.54e5 | inactive |
| Tif-IA (GeneID 35454) | DRSC03726 | – | – | 7447 | 5.34e5 | inactive |
| smo (GeneID 33196) | DRSC00837 | – | – | 12035 | 5.72e5 | inactive |
| CG17075 (GeneID 33191) | DRSC00483 | – | – | 10403 | 5.69e5 | inactive |
| Saysd1 (GeneID 43029) | DRSC14664 | – | – | 6211 | 2.98e5 | inactive |
| CtsK2 (GeneID 36973) | DRSC06897 | – | – | 8900 | 3.58e5 | inactive |
